The series in a line: Lipid analysis of immunized mice. The conditions noted are these: Apoe^−/− mice, 1× CFA + 4× IFA immunization, WD, at 23 weeks; mean ± SD, N = 6–7. In kind it is in vivo, mouse.

For “MEVGWYRSPFSRVVHLYRNGK [MOG35–55, irrelevant control peptide, myelin oligodendrocyte glycoprotein 35–55]”, the HDL is 213 ± 7.5 mg/dL, the Non-HDL is 801.7 ± 72.4 mg/dL, the TC is recorded as 1014.7 ± 76.4 mg/dL and the TG came out at 142.3 ± 33.2 mg/dL.

The values above are taken from paper PMC3873602, “Atheroprotective Vaccination with MHC-II Restricted Peptides from ApoB-100” (Frontiers in Immunology, 2013).
